Source: PubChem BioAssay AID1347076 (National Center for Advancing Translational Sciences (NCATS), 2019)
About 13,000 (3.2%) of roughly 400,000 compounds were called active. The shares of active, inactive and inconclusive entries below differ from those in the screen. The call rests on the fitted dose curve; in most records, active means well fitted cell-killing curve with a large enough effect; inconclusive means small, poorly fitted or top-dose-only effect, or effect the other way; inactive means flat fitted curve, though single readings scatter. Potencies beside an inconclusive call are fits to weak or partial responses and may not hold up.

Test: qHTS assay for MDR1-selective chemotherapeutics: Primary screen using the drug-selected MDR subline cells KB-V1; further: nearly all actives have a fitted effect of over 60% in size
Details: KB-V1 MDR cells viability, CellTiter-Glo, 72 h; activity change, negative = cytotoxicity: at 46.1 µM (top of the series)
Method in brief: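 Potencies derive from concentration-effect curves fitted to normalized luminescence (CellTiter-Glo) of KB-V1 cells treated for 72 h at 37 degrees C in phenol-red-free DMEM containing 10% FBS.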
On the % scale 0 is the no-effect control and ±100 the full control effect; potency means the concentration at half of the fitted maximal effect.

SMILES | Potency | activity change, negative = cytotoxicity
Cn1c(-c2ccccc2)cnc1SCC(=O)N1CCCCC1 | inactive | 
COCCOC(=O)c1[nH]c2c(c1C)C(=O)CC(c1cc(OC)c(OC)c(OC)c1)C2 (configuration not stated) | inactive | 
Cc1oc(-c2cccc(Cl)c2)nc1CSCC(=O)O | inactive | 
COC(=O)c1ccc(COc2ccccc2/C=N/NC(=O)c2cccnc2)cc1 | inactive | 
N#Cc1c(NC(=O)C2CC(c3ccccc3O)=NO2)sc2c1CCC2 (configuration not stated) | active: 20.6 µM | 
C[C@H](c1ccccc1)N1C[C@@H](COCc2ccccc2)Oc2cc(N3CC[C@H](N(C)C)C3)ccc2S1(=O)=O | active: 23.1 µM | 
CC(Sc1nncs1)C(=O)Nc1ccc2c(c1)OCCO2 (configuration not stated) | inactive | 
COc1cc(C(C(=O)NC2CCCC2)N(C(=O)Cc2cccs2)C2CC2)cc(OC)c1OC (configuration not stated) | inconclusive: 10.3 µM [cytotoxic, partial curve, poor fit] | 
CCOC(=O)c1c2c(n(-c3ccc(OC)cc3)c1C)C(=O)C(=O)c1ccccc1-2 | inconclusive: 2.91 µM [cytotoxic, partial curve, poor fit] | 
O=C(NCc1cccnc1)C1CC(c2ccc(Cl)c(Cl)c2)=NO1 (configuration not stated) | inconclusive: 32.6 µM [cytotoxic, single point] | 
Fc1cccc2sc(Nc3nc4ccccc4s3)nc12 | active: 20.6 µM | 
COCCN(C(=O)COC(=O)C1CC(=O)N(c2ccc(C)cc2)C1)c1c(N)n(Cc2ccccc2)c(=O)[nH]c1=O (configuration not stated) | inconclusive: 23.1 µM [rising, single point] | 
Cc1ccc(C)c2[nH]c(=O)c(CN(Cc3ccco3)C(=S)NCC3CCCO3)cc12 (configuration not stated) | inconclusive: 7.31 µM [cytotoxic, partial curve, poor fit] | 
CC(CN1CCOCC1)(NS(=O)(=O)c1ccccc1)c1ccccc1 (configuration not stated) | inactive | 
CCN(C(=O)/C=C/c1ccc(OC)cc1)C1CCCCC1 | inconclusive: 13 µM [cytotoxic, partial curve] | 
Cc1cccc(NC(=O)Cn2nc(-c3cccs3)ccc2=O)c1C | inconclusive: 16.4 µM [cytotoxic, single point] | 
O=C(c1cnn2c(C(F)(F)F)cc(-c3ccco3)nc12)N1CCc2ccccc2C1 | inconclusive: 14.6 µM [cytotoxic, partial curve] | 
CNC(=O)c1csc(-c2ccc(C)cc2)n1 | inconclusive: 23.1 µM [cytotoxic, single point] | 
COC(=O)CC1COc2ccccc2N1S(=O)(=O)c1ccc(Br)cc1 (configuration not stated) | inconclusive: 20.6 µM [cytotoxic, single point] | 
Cc1cc(C)cc(N(CCC#N)C(=O)CSc2ncnc3sccc23)c1 | inconclusive: 5.17 µM [cytotoxic, partial curve, poor fit] | 
O=C(NCC(=O)N1CCN(c2ccccc2O)CC1)c1ccco1 | inactive | 
Nc1cc([N+](=O)[O-])ccc1OCc1ccccc1 | inconclusive: 29.1 µM [cytotoxic, single point] | 
CCCCC[C@H](C)N1C[C@@H](COCc2ccccc2)Oc2cc(N3CC[C@H](O)C3)ccc2S1(=O)=O | inconclusive: 18.4 µM [cytotoxic, partial curve] | 
Cc1ccc(C(C)(C)C)cc1S(=O)(=O)N1CC(=O)Nc2ccccc21 | inconclusive: 16.4 µM [cytotoxic, partial curve] | 

SMILES | Potency | activity change, negative = cytotoxicity
Cc1cccc(-c2nnc(SCCC(=O)O)o2)c1 | inactive | 
CNc1cc(C)nc(-n2nc(C)cc2C)n1 | inactive | 
COc1cc2c(NC3CCN(C)CC3)nc(N3CCCN(C)CC3)nc2cc1OCC1CCCNC1 (configuration not stated) | inconclusive: 29.1 µM [cytotoxic, single point] | 
C(#CC1CCCCC1)c1ccc2c(c1)COc1c3ccccc3nn1-2 | inconclusive: 18.4 µM [rising, single point] | 
CC1CCN(CC(=O)N2c3ccccc3CC2C)CC1 (configuration not stated) | inactive | 
Cc1cc(-c2ccccc2)nc(N/N=C/c2ccc(O)cc2O)n1 | inconclusive: 16.4 µM [cytotoxic, single point] | 
C[N+](C)(C)CC(=O)N/N=C/c1c2ccccc2cc2ccccc12 |  | inconclusive: -12%
Cc1ccc2nc(N3CCC(C(=O)O)CC3)nc(-c3ccccc3)c2c1 | inactive | 
Cn1ncc2c(NNC(=O)c3ccc(Cl)c(Cl)c3)ncnc21 | inconclusive: 29.1 µM [cytotoxic, single point] | 
O=C(Nc1cccc(NC(=O)c2ccco2)c1)c1ccc([N+](=O)[O-])cc1 | inactive | 
COc1ccccc1CNC(=O)C(C)n1c(=O)cc(C(F)(F)F)c2c(C)nn(C)c21 (configuration not stated) | inactive | 
O=[N+]([O-])c1ccc(C(c2sc3nc(-c4ccco4)nn3c2O)N2CCC3(CC2)OCCO3)cc1 (configuration not stated) | inactive | 
N#Cc1ccsc1NC(=O)CN1CCN(Cc2ccccc2)CC1 | inactive | 
N#Cc1ccc2c(c1)nnn2-c1ccccc1 | active: 9.2 µM | 
CC(C)c1ccc(CN2C(=O)NC3(CCCCCC3)C2=O)cc1 | inconclusive: 16.4 µM [cytotoxic, single point] | 
Cn1ncc(N=Cc2ccccc2)c1C(N)=O | inconclusive: 16.4 µM [rising, single point] | 
CSc1nc(N2CCN(c3ccccc3Cl)CC2)c2ccccc2n1 | inconclusive: 8.2 µM [cytotoxic, partial curve] | 
CCOC(=O)C1=CC[C@@H](c2cccc(Br)c2)N(S(=O)(=O)c2ccc(F)cc2)[C@H]1c1cccc(Cl)c1 | inconclusive: 18.4 µM [cytotoxic, partial curve] | 
CCCCOc1ccccc1NC(=O)Cn1c(-c2nonc2N)nc2ccccc21 | active: 1.84 µM | 
Cc1cc(C)nc(NC2=NCC(=O)N2c2cccc(Cl)c2)n1 | active: 20.6 µM | 
O=S(=O)(NC1CCSc2ccccc21)c1ccc(Cl)nc1 (configuration not stated) | inconclusive: 16.4 µM [cytotoxic, single point] | 
Cc1ccc2[nH]c(C(F)(F)F)cc(=O)c2c1 | inconclusive: 18.4 µM [cytotoxic, single point] | 
O=C1C(=O)N(Cc2ccncc2)C(c2cccc(O)c2)/C1=C(\O)c1ccc2c(c1)OCCO2 (configuration not stated) | inconclusive: 29.1 µM [rising, single point] | 
COc1ccc(Cn2cc(CN3CCS(=O)(=O)N(Cc4ccc(-c5cccc(Cl)c5)cc4)C(C)C3=O)nn2)cc1 (configuration not stated) | inconclusive: 29.1 µM [cytotoxic, single point] | 

Single values from the entries so far.
Potency, N#Cc1c(NC(=O)C2CC(c3ccccc3O)=NO2)sc2c1CCC2 (configuration not stated) is entered as active: 20.6 µM
Potency, COC(=O)c1ccc(COc2ccccc2/C=N/NC(=O)c2cccnc2)cc1 is entered as inactive
Potency, Cc1oc(-c2cccc(Cl)c2)nc1CSCC(=O)O is entered as inactive

Continuation.

SMILES | Potency | activity change, negative = cytotoxicity
COc1ccccc1C(CNC(=O)CSc1ccc2ccccc2c1)N(C)C (configuration not stated) | inconclusive: 10.3 µM [cytotoxic, partial curve, poor fit] | 
COc1cccc(-c2n[nH]nc2C2=CC(=O)C[C@H](c3ccc(F)cc3)C2)c1 | inactive | 
CC1CN(/C(=N\S(=O)(=O)c2ccccc2)c2ccccc2)CC(C)O1 (configuration not stated) | inconclusive: 23.1 µM [cytotoxic, single point] | 
CCc1cccc2c(=O)c(C(=O)N3CCCCCC3)c[nH]c12 | inactive | 
CS(=O)(=O)N(CC(=O)NCCSCc1ccccc1)c1ccc2c(c1)OCO2 | inconclusive: 23.1 µM [cytotoxic, single point] | 
CCOC(=O)c1c(C)oc2nc(C)nc(NCCc3ccc(S(N)(=O)=O)cc3)c12 | inconclusive: 32.6 µM [cytotoxic, single point] | 
Cc1cc(C)n(-c2nc3ccccc3c(=O)n2OCC(=O)OCc2ccccc2)n1 | inactive | 
CCOc1ccccc1Nc1ccc2cc(S(=O)(=O)N3CCCCC3)ccc2n1 | inconclusive: 10.3 µM [cytotoxic, partial curve, poor fit] | 
COc1ccc(C(=O)NCCS(=O)(=O)N2CCN(C(=O)c3ccco3)CC2)cc1 | inactive | 
Cc1cc[n+](CC(=O)c2ccc(NC(=O)c3ccccc3)cc2)cc1 | inactive | 
CCCOc1ccc(C(=O)Nc2cc(S(=O)(=O)N3CCOCC3)ccc2N2CCN(CC)CC2)cc1OC | inconclusive: 20.6 µM [cytotoxic, partial curve, poor fit] | 
COc1cccc(NC(=O)Nc2nc(SC)ns2)c1 | inconclusive: 29.1 µM [cytotoxic, single point] | 
COc1ccc(S(=O)(=O)N2c3cc(C)ccc3OCC2C(C)(C)C)cc1 (configuration not stated) | active: 5.17 µM | 
Cc1cc(NCCCCO)n2c(nc3ccccc32)c1C#N | inconclusive: 10.3 µM [cytotoxic, partial curve, poor fit] | 
Cc1cccc(N(C(=O)c2nsc(Cl)c2Cl)C(C(=O)NC2CCCC2)c2ccc(O)cc2)c1 (configuration not stated) | inactive | 
CCOC1(OCC)C(c2ccc(Cl)cc2)C(C#N)(C#N)C1(OCC)OCC (configuration not stated) | inconclusive: 29.1 µM [cytotoxic, single point] | 
Nc1ccccc1C(=O)NNc1ncc(C(F)(F)F)cc1Cl | inconclusive: 16.4 µM [cytotoxic, single point] | 
COc1ccc(N2CCN(C(CNC(=O)COc3ccccc3)c3ccco3)CC2)cc1 (configuration not stated) | inconclusive: 3.66 µM [cytotoxic, partial curve] | 
Cc1cc(NC(=O)CN(c2cccc(C)c2C)S(=O)(=O)c2ccccc2)ccc1Br | inactive | 
CCc1[nH]nc2c1C(C1C=CCCC1)C(C#N)=C(N)O2 (configuration not stated) | inconclusive: 29.1 µM [cytotoxic, single point] | 
CN(C(=O)CCCN1C(=O)c2cccc3cccc(c23)C1=O)c1ccccc1 | inconclusive: 6.51 µM [cytotoxic, partial curve] | 
Cc1ccc2c(CN(C)Cc3ccc(OC(F)F)cc3)cc(=O)oc2c1C | active: 16.4 µM | 
O=C(CSc1nnc(-c2ccccn2)o1)Nc1ccccc1Cl | inactive | 
O=C(Cn1c(C(=O)N2CCN(C3CCCCC3)CC2)cc2sccc21)c1ccccc1 | active: 6.51 µM | 

Exported in CSV form: entries from further up.
SMILES,Potency,"activity change, negative = cytotoxicity"
COc1ccccc1C(CNC(=O)CSc1ccc2ccccc2c1)N(C)C (configuration not stated),"inconclusive: 10.3 µM [cytotoxic, partial curve, poor fit]",
COc1cccc(-c2n[nH]nc2C2=CC(=O)C[C@H](c3ccc(F)cc3)C2)c1,inactive,
CC1CN(/C(=N\S(=O)(=O)c2ccccc2)c2ccccc2)CC(C)O1 (configuration not stated),"inconclusive: 23.1 µM [cytotoxic, single point]",
